Data taken from publication PMC3623654.
Results are given in words; binding and its absence hold for the method and conditions named. Some results given as binding are weak or reduced against the parent protein; the word gives no strength.

B1: pfJRTSΔ232-274 (domain or fragment, UniProt P13922 275-608)
chain: MKINYENDDDDEEEDDFVYFNFNKEKEEKNKNSIHPNDFQIYNSLKYKYHPEYQYLNIIYDIMMNGNKQSDRTGVGVLSKFGYIMKFDLSQYFPLLTTKKLFLRGIIEELLWFIRGETNGNTLLNKNVRIWEANGTREFLDNRKLFHREVNDLGPIYGFQWRHFGAEYTNMYDNYENKGVDQLKNIINLIKNDPTSRRILLCAWNVKDLDQMALPPCHILCQFYVFDGKLSCIMYQRSCDLGLGVPFNIASYSIFTHMIAQVCNLQPAQFIHVLGNAHVYNNHIDSLKIQLNRIPYPFPTLKLNPDIKNIEDFTISDFTIQNYVHHEKISMDMAA
B2: pfJRTSΔ232-271 (domain or fragment, UniProt P13922 272-608)
chain: MDKYKINYENDDDDEEEDDFVYFNFNKEKEEKNKNSIHPNDFQIYNSLKYKYHPEYQYLNIIYDIMMNGNKQSDRTGVGVLSKFGYIMKFDLSQYFPLLTTKKLFLRGIIEELLWFIRGETNGNTLLNKNVRIWEANGTREFLDNRKLFHREVNDLGPIYGFQWRHFGAEYTNMYDNYENKGVDQLKNIINLIKNDPTSRRILLCAWNVKDLDQMALPPCHILCQFYVFDGKLSCIMYQRSCDLGLGVPFNIASYSIFTHMIAQVCNLQPAQFIHVLGNAHVYNNHIDSLKIQLNRIPYPFPTLKLNPDIKNIEDFTISDFTIQNYVHHEKISMDMAA
B3: pfJRTSΔ232-265 (domain or fragment, UniProt P13922 266-608)
chain: MEFYKNVDKYKINYENDDDDEEEDDFVYFNFNKEKEEKNKNSIHPNDFQIYNSLKYKYHPEYQYLNIIYDIMMNGNKQSDRTGVGVLSKFGYIMKFDLSQYFPLLTTKKLFLRGIIEELLWFIRGETNGNTLLNKNVRIWEANGTREFLDNRKLFHREVNDLGPIYGFQWRHFGAEYTNMYDNYENKGVDQLKNIINLIKNDPTSRRILLCAWNVKDLDQMALPPCHILCQFYVFDGKLSCIMYQRSCDLGLGVPFNIASYSIFTHMIAQVCNLQPAQFIHVLGNAHVYNNHIDSLKIQLNRIPYPFPTLKLNPDIKNIEDFTISDFTIQNYVHHEKISMDMAA
B4: pfJRTSΔ232-251 (domain or fragment, UniProt P13922 252-608)
chain: MEKNDDKDTCHMKKLTEFYKNVDKYKINYENDDDDEEEDDFVYFNFNKEKEEKNKNSIHPNDFQIYNSLKYKYHPEYQYLNIIYDIMMNGNKQSDRTGVGVLSKFGYIMKFDLSQYFPLLTTKKLFLRGIIEELLWFIRGETNGNTLLNKNVRIWEANGTREFLDNRKLFHREVNDLGPIYGFQWRHFGAEYTNMYDNYENKGVDQLKNIINLIKNDPTSRRILLCAWNVKDLDQMALPPCHILCQFYVFDGKLSCIMYQRSCDLGLGVPFNIASYSIFTHMIAQVCNLQPAQFIHVLGNAHVYNNHIDSLKIQLNRIPYPFPTLKLNPDIKNIEDFTISDFTIQNYVHHEKISMDMAA
B5: pfJRTSΔ232-235 (domain or fragment, UniProt P13922 236-608)
chain: MEQNCIKGEEKNNDMPLKNDDKDTCHMKKLTEFYKNVDKYKINYENDDDDEEEDDFVYFNFNKEKEEKNKNSIHPNDFQIYNSLKYKYHPEYQYLNIIYDIMMNGNKQSDRTGVGVLSKFGYIMKFDLSQYFPLLTTKKLFLRGIIEELLWFIRGETNGNTLLNKNVRIWEANGTREFLDNRKLFHREVNDLGPIYGFQWRHFGAEYTNMYDNYENKGVDQLKNIINLIKNDPTSRRILLCAWNVKDLDQMALPPCHILCQFYVFDGKLSCIMYQRSCDLGLGVPFNIASYSIFTHMIAQVCNLQPAQFIHVLGNAHVYNNHIDSLKIQLNRIPYPFPTLKLNPDIKNIEDFTISDFTIQNYVHHEKISMDMAA
B6: pfJRTSΔ232-276 (domain or fragment, UniProt P13922 277-608)
chain: MNYENDDDDEEEDDFVYFNFNKEKEEKNKNSIHPNDFQIYNSLKYKYHPEYQYLNIIYDIMMNGNKQSDRTGVGVLSKFGYIMKFDLSQYFPLLTTKKLFLRGIIEELLWFIRGETNGNTLLNKNVRIWEANGTREFLDNRKLFHREVNDLGPIYGFQWRHFGAEYTNMYDNYENKGVDQLKNIINLIKNDPTSRRILLCAWNVKDLDQMALPPCHILCQFYVFDGKLSCIMYQRSCDLGLGVPFNIASYSIFTHMIAQVCNLQPAQFIHVLGNAHVYNNHIDSLKIQLNRIPYPFPTLKLNPDIKNIEDFTISDFTIQNYVHHEKISMDMAA

target: Plasmodium falciparum DHFR domain (amino acids 1-228), expressed from pAC-pfDHFR (Plasmodium falciparum) (UniProt P13922); assay: co-purification on methotrexate-sepharose affinity column; pfDHFR and truncated pfJRTS co-expressed in E. coli χ2913; crude extract circulated overnight over methotrexate-sepharose CL-6B in buffer A with 0.2 M KCl, washed with 0.75 M KCl, DHFR eluted with 4 mM H2folate; pfTS found in the eluate by TS activity and [3H]-FdUMP labelling

binding, binds:
B1
B2
B3
B4
B5
B6
